PMC12933668
The exact form of at least one protein or probe is not confirmed. A negative result means that nothing was seen under these conditions. For some of these results: Protein sequences can lack the tags named with them.

How the values were obtained:
Ppbbx24-del = assay: EMSA; settings: Beyotime biotin EMSA kits GS008/GS009, manufacturer protocol, pH and temperature not given, recombinant protein
PpBBX24 = molecular target: T1, PpBBX24 (UniProt D9ZIX0); assay: EMSA; settings: Beyotime biotin EMSA kits GS008/GS009, manufacturer protocol, pH and temperature not given, recombinant protein
T1 sequence (looked up, limits assumed): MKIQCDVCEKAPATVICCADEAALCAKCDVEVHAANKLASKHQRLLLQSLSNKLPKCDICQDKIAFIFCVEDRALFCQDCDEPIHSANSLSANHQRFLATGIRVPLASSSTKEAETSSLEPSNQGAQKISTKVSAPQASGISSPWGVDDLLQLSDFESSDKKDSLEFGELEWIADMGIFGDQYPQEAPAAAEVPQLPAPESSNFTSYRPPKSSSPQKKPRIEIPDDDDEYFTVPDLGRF

| Sequence | binding result (Ppbbx24-del; label: biotin) | binding result (PpBBX24; label: biotin) | binding result (Ppbbx24-del) | binding result (PpBBX24) |
| --- | --- | --- | --- | --- |
| CTCAGCTACGCCCTCGACACGTGAGGCTGAATTAACCAAA (double strand) [PpMYB5 Probe (G-box)] | binds | binds | – | – |
| CTCAGCTACGCCCTCGAAAACTCAGGCTGAATTAACCAAA (double strand) [PpMYB5 Mutant Probe] | – | – | no binding | no binding |
